# This is one part of the list. This data set is noisy: repeats of one test often differ as much as different tests do.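 U2OS cells carrying ACE2 were mixed with U2OS cells carrying full-length spike, and fusion was scored by imaging as the share of nuclei showing both cell types' fluorescent markers. A compound counts as an inhibitory hit when it is non-toxic and its fusion z-score falls below -3, meaning more than three standard deviations below the plate's DMSO wells.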
# Tested on: U2OS ACE2 x SARS-CoV-2 spike co-culture
# Test: cell-cell fusion (fraction fused) z-score vs plate DMSO control; higher = more fusion
# Settings: 30 µM; 5 h; toxicity class: non-toxic, passed QC
row,Compound,cell-cell fusion (z-score)
1,O=[N+]([O-])O[C@H]1CO[C@H]2[C@@H]1OC[C@H]2O[N+](=O)[O-],inactive: 1.69
2,COc1ccc2c(c1)CC[C@@H]1[C@@H]2CC[C@]2(C)[C@H](NCCCCCCN3C(=O)C=CC3=O)CC[C@@H]12,inactive: 0.974
3,NC1(C(=O)O)CC1,inactive: 1.95
4,N#Cc1ccc(Oc2ccc3c(c2)COB3O)cc1 [Crisaborole],inactive: 0.953
5,CN(C)c1ccc(O)c2c1C[C@H]1C[C@H]3[C@H](N(C)C)C(O)=C(C(N)=O)C(=O)[C@@]3(O)C(O)=C1C2=O.Cl [Minocycline hydrochloride],inactive: 1.5
6,"CC12NC(Cc3ccccc31)c1ccccc12.O=C(O)/C=C/C(=O)O (single isomer, unassigned; (-)) [(-)-MK-801 hydrogen maleate]",inactive: 1.95
7,C#C[C@]1(O)CCC2C3CCc4cc(OC)ccc4C3CC[C@@]21C (stereo not given in full),inactive: 1.53
8,N[C@@H](CC(=O)O)C(=O)O [L-Aspartic acid],inactive: 2.22
9,C[N+]1(C)CCC(OC(=O)C(O)(c2ccccc2)C2CCCC2)C1.[Br-] (stereo not given),inactive: 2
10,Cc1ccc(C(=O)C(C)CN2CCCCC2)cc1.Cl (stereo not given),inactive: 2.28
11,COc1ccccc1OCC(O)CO (stereo not given),inactive: 1.93
12,CN(C)CCOC(c1ccc(Cl)cc1)c1ccccn1.O=C(O)/C=C\C(=O)O (stereo not given) [Carbinoxamine Maleate Salt],inactive: 3.39
13,Cc1ccc(S(=O)(=O)[N-]Cl)cc1.[Na+],inactive: 1.01
14,O=C(N[C@H](CO)[C@H](O)c1ccc([N+](=O)[O-])cc1)C(Cl)Cl [Chloramphenicol],inactive: 3.02
15,O=C(NC(=O)c1c(F)cccc1F)Nc1cc(Cl)c(OC(F)(F)C(F)C(F)(F)F)cc1Cl (stereo not given),inactive: 2.86
16,CCCC(CCC)C(=O)O.CCCC(CCC)C(=O)[O-].[Na+] [Divalproex Sodium],inactive: 1.65
17,Nc1ccc(-c2ccc3ncc4ccc(=O)n(-c5cccc(C(F)(F)F)c5)c4c3c2)cn1 [Torin 2],inactive: 1.82
18,CC#CCOC(=O)c1c(C)nc2sc3c(c2c1N)CCC(O)C3 (stereo not given),inactive: 0.934

# Individual results from the results shown.
# For cell-cell fusion (z-score), C#C[C@]1(O)CCC2C3CCc4cc(OC)ccc4C3CC[C@@]21C (stereo not given in full) is entered as inactive: 1.53
# For cell-cell fusion (z-score), N#Cc1ccc(Oc2ccc3c(c2)COB3O)cc1 [Crisaborole] is entered as inactive: 0.953

# Next entries follow:

row,Compound,cell-cell fusion (z-score)
1,CNc1ccc2oc(C[C@H]3O[C@@]4(CC[C@H]3C)O[C@H]([C@H](C)C(=O)c3ccc[nH]3)[C@H](C)C[C@H]4C)nc2c1C(=O)O [Calcimycin],inactive: 0.958
2,CCN1/C(=C/C(C)=O)Sc2ccc(OC)cc21,inactive: 0.258
3,C[C@]12CCC3c4ccc(OC(=O)N(CCCl)CCCl)cc4CCC3C1CC[C@@H]2O (stereo not given in full),inactive: -1.71
4,C[C@@H]([C@H](O)c1ccccc1)N(C)C,inactive: 1.35
5,Cl.Cl.OCCN1CCN(CC/C=C2/c3ccccc3Sc3ccc(C(F)(F)F)cc32)CC1 [cis-(Z)-Flupenthixol dihydrochloride],inactive: 3.05
6,CNC[C@H](O)c1cccc(O)c1.Cl [Phenylephrine hydrochloride],inactive: -0.0249
7,CCC(=O)O[C@H](CC(=O)O)C[N+](C)(C)C.[Cl-],inactive: 2.4
8,Cc1nc(N)sc1-c1ccnc(Nc2ccc(N3CCOCC3)cc2)n1,inactive: -0.788
9,CCN[C@@H]1C[C@H](N)[C@@H](O[C@H]2OC(CN)=CC[C@H]2N)[C@H](O)[C@H]1OC1OC[C@](C)(O)[C@H](NC)[C@H]1O.O=S(=O)(O)O.O=S(=O)(O)O (stereo not given in full),inactive: 4.1
10,CN1C(C(=O)Nc2ccccn2)=C(O)c2ccccc2S1(=O)=O [Piroxicam],inactive: 1.84
11,CC(C)CCCC(C)C1CCC2C3CC[C@H]4C[C@@H](O)CC[C@]4(C)C3CC[C@]12C (stereo partly drawn) [5alpha-CHOLESTANOL],inactive: 2.92
12,CCCc1nc(C)c2c(=O)[nH]c(-c3cc(S(=O)(=O)N4CCN(CC)CC4)ccc3OCC)nn12.Cl.O.O.O [Vardenafil hydrochloride trihydrate],inactive: 2.4
13,O=c1[nH]c2cc(C(F)(F)F)ccc2n1-c1cc(C(F)(F)F)ccc1O,inactive: 1.68
14,Cl.NC12CC3CC(CC(C3)C1)C2 [Amantadine hydrochloride],inactive: 2.89
15,CC12CCC3C(CC3(C)C)C(C)(CCC1=O)O2 (stereo not given),inactive: 2.55
16,C[N+]1(C)CCC(OC(=O)C(c2ccccc2)c2ccccc2)CC1.[I-],inactive: 2.27
17,C[N+]1(C)CCC(OC(=O)C(c2ccccc2)c2ccccc2)CC1.[I-] [4-DAMP methiodide],inactive: 3.78
